These results are taken from article PMC8227628, “DisA Limits RecG Activities at Stalled or Reversed Replication Forks” (Cells, 2021).

Assay [1] addresses RecG fused to the T18 or T25 catalytic domain of the adenylate cyclase (B. subtilis) (UniProt O34942). Put plainly: two-hybrid; adenylate cyclase-based bacterial two-hybrid in E. coli BTH101; T18 and T25 fusions at the N- or C-terminus co-transformed pairwise; spotted on LB plates with 0.5 mM IPTG and X-Gal, 25 °C for 3-4 days; blue colonies as read-out.
The target of assay [2] is T1, DisA fused to the T18 or T25 catalytic domain of the adenylate cyclase (B. subtilis) (UniProt P37573).
T1 sequence: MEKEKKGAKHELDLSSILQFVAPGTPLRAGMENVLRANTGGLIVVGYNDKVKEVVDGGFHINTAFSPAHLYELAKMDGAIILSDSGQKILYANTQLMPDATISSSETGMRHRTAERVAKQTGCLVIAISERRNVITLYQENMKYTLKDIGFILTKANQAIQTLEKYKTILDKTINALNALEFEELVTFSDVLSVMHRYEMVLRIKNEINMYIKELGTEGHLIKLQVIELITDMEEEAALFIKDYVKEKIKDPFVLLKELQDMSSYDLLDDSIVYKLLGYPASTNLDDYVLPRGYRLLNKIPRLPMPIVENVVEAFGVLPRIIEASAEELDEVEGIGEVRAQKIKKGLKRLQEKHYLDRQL
The description is as above.

The target in assay [3] is T2, His-tagged DisA (B. subtilis, UniProt P37573 1-360).
T2 sequence (looked up): T1 sequence
Put plainly: pull-down; Ni2+ affinity chromatography: His-tagged DisA (1 µg) and RecG (0.5 µg) pre-incubated in buffer B (50 mM Tris-HCl pH 7.5, 1 mM DTT, 50 mM NaCl, 1 mM MgCl2, 0.05 mg/mL BSA, 5% glycerol) 5 min at 37 °C, loaded onto a 50 µL Ni2+ microcolumn, washed, eluted with 400 mM imidazole; SDS-PAGE, Coomassie; both purified.

Results are given in words; binding and its absence hold for the method and conditions named. Some binding calls cover weakened binding; strength is not graded here. Where a sequence is shown, tags or fusion partners need not be part of it.

B1: RecG fused to the T18 or T25 catalytic domain of the adenylate cyclase (protein, UniProt O34942 1-682)
chain: MKQHQQTSIANIKGIGPETEKTLNELGIYDISDLLNYFPYRYDDYELRDLEEVKHDERVTVEGKVHSEPSLTYYGKKRNRLTFRLLVGHYLITAVCFNRPYLKKKLSLGSVVTVSGKWDKHRQTISVQELKNGPHQEDKSIEPVYSVKENVTVKMMRRFIQQALTQYADSLPDPLPEKLRKSYKLPDYYQALKAMHQPETREALKLARRRFVYEEFLLFQLKMQAFRKAEREQTQGIRQRFSNEELMRFIKSLPFPLTNAQSRVLREITADMSSPYRMNRLLQGDVGSGKTAVAAIALYAAILSGYQGALMVPTEILAEQHADSLVSLFEKWDVSVALLTSSVKGKRRKELLERLAAGEIDILVGTHALIQDEVEFKALSLVITDEQHRFGVEQRKKLRNKGQDPDVLFMTATPIPRTLAITVFGEMDVSVIDEMPAGRKRIETYWVKHDMLDRILAFVEKELKQGRQAYIICPLIEESDKLDVQNAIDVYNMLSDIFRGKWNVGLMHGKLHSDEKDQVMREFSANHCQILVSTTVVEVGVNVPNATIMVIYDADRFGLSQLHQLRGRVGRGEHQSFCILMADPKSETGKERMRIMSETNDGFELSEKDLELRGPGDFFGKKQSGMPEFKVADMVHDYRALETARQDAANLVASDAFWKEPEYAVLRDELLKSGVMDGEKLS
With B1, the binding result is “binds” in assay [1] and “no binding” in assay [2].

B2: native RecG (natural protein, B. subtilis, UniProt O34942 1-682, looked up)
chain: B1 chain
For B2, the binding entry in assay [3] was “no binding (tested: RecG 0.5 µg, His-tagged DisA 1 µg)”.
